From patent US8440611 (dated 2013)

Experiment: general procedure: Fmoc solid-phase peptide synthesis; Rink Amide MBHA resin (Novabiochem), 0.73 mmol/g
Conditions: whole synthesis, analytical HPLC, C18 column, 2-60% acetonitrile (0.1% TFA) over 30 minutes, scale of the general procedure 1.0 mmole (residues 18-36), 0.1 mmole (residues 1-17)

Final HPLC purity, 99.9%:
[Aib^11,17, 4Hyp^34, Lys^35-ψ(CH2—N(Ac))Tyr^36]hNPY(1-36)-NH2
[Aib^11,17, 4Hyp^34, Lys^35-ψ(CH2—NH)Tyr^36]hNPY(1-36)-NH2
[Aib^17, 4Hyp^34, Apc^35]hNPY(1-36)-NH2
[Aib^17, 4Hyp^34, Lys^35-ψ(CH2—NH)Tyr^36]hNPY(1-36)-NH2
